For the assay, the system named is Salmonella enterica serovar Typhimurium SL1344. In words: bacterial growth OD600 after 18 h with compound and polymyxin B; higher = more bacterial growth (less inhibition). The following applies: 50 µM, Mueller-Hinton broth.

Some of the results follow. These are raw signals, not scaled to a control.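 Primary screen: polymyxin B was added at a level permeabilizing Salmonella outer membranes while sparing inner membranes. DMSO wells, both with and without polymyxin B, established maximum growth. Plate-to-plate variation meant each plate was ranked on its own, and the lowest-OD600 compounds were selected as hits.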

On to `COc1ccccc1N1CCN(CC2(O)CCCN(CC(C)(C)C)C2=O)CC1` (stereo not given), for which, under “polymyxin B 1 µg/mL”, the “bacterial growth OD600” value was found to be 0.91.
As for `CSc1ccccc1OCc1cc(C(=O)NCCN2CCCCC2CO)no1` (stereo not given), the “bacterial growth OD600” value (polymyxin B 0.75 µg/mL) is 0.784.
On the same count and under the same terms, the figure for `Cn1c(C2CCC2)nc2cc(C(=O)N3CCN(c4cnccn4)CC3)cc(NC(=O)C3CCCO3)c21` (stereo not given) is 0.863; for `COC(=O)C1CCCCN1C(=O)c1c(OC)cc(=O)n2c1CCN(Cc1cc(F)ccc1F)CC2` (stereo not given) it is 0.792.
For `COc1cccc(CCC2CCCN(C(=O)c3cnc(C)cn3)C2)c1` (stereo not given), the “bacterial growth OD600” value (polymyxin B 1 µg/mL) worked out at 0.48.
On the same count and under the same terms, the figure for `COCCN(Cc1nc(-c2ccc(F)cc2)oc1C)C(C)C` is 0.86; for `Cc1ccccc1CCC1CCCN(C(=O)CCN2CCCCC2=O)C1` (stereo not given) it is 0.978.
In the case of `COc1cccc(-c2ccc(NC(=O)C3CCCN(CCCSC)C3)cc2)c1` (stereo not given), the “bacterial growth OD600” value (polymyxin B 0.75 µg/mL) came out at 0.58.
Take `COCCC(=O)NCc1cccnc1Oc1ccccc1`: under “polymyxin B 1 µg/mL”, the “bacterial growth OD600” value stood at 0.974.
Take `COCCN1CCN(Cc2cn(-c3ccccc3)nc2-c2cccc(OC)c2)CC1`: the “bacterial growth OD600” value (polymyxin B 1 µg/mL) came to 0.918.
For the compound `Cc1oc(-c2ccc(C(F)(F)F)cc2)nc1CN1CCSCC1`, for the setting “polymyxin B 1 µg/mL”, the “bacterial growth OD600” value was 0.658.
For `Cc1nc(N2CCCCCCC2)ncc1C(C)NCc1ccco1` (stereo not given), the “bacterial growth OD600” value (polymyxin B 0.75 µg/mL) was 0.611.
On the same count and under the same terms, the figure for `CN1N=C(C(=O)NCc2cccnc2N(C)Cc2ccccc2)CCC1=O` is 0.677.
Take `O=C(NCc1cccc(Cl)c1)C1CCC(=O)N(CCCN2CCOCC2)C1` (stereo not given): the “bacterial growth OD600” value (polymyxin B 1 µg/mL) turned out to be 0.963.
The same measure, in the same setting: the figure for `CC(C)(C)CN1CCCC2(CCN(C(=O)CSc3ccccc3)C2)C1=O` (stereo not given) is 0.926.
For `CC(C)C(NC(=O)c1ccccn1)c1nnc2n1CCN(C(=O)CCC(F)(F)F)CC2` (stereo not given), the “bacterial growth OD600” value (polymyxin B 0.75 µg/mL) is 0.889.
With `CCCN(Cc1nc(-c2ccc(OC)c(C)c2OC)oc1C)CC1CCCO1` (stereo not given), the “bacterial growth OD600” value (polymyxin B 0.75 µg/mL) was determined as 0.728.
As to `Cc1ccccc1Oc1ncccc1CNCc1cccn1-c1cccnc1`, for the setting “polymyxin B 1 µg/mL”, the “bacterial growth OD600” value was found to be 0.849.
Still for that read-out and setting: the figure for `CN(CC1(O)CCCN(Cc2ccc(F)cc2)C1=O)C1CCOCC1` (stereo not given) is 0.957.
On to `COc1ccc(OC)c(CNC2COc3c(cccc3OC)C2)c1` (stereo not given), for which the “bacterial growth OD600” value (polymyxin B 0.75 µg/mL) turned out to be 0.829.

Values taken from the supplement of paper PMC12889115.
